In paper PMC10141522:
No constants are given. Whether binding was seen depends on the method and setting. Binding seen in cells or lysates may run through a third protein. Some binding calls cover weakened binding; strength is not graded here.

Protein sequences, listed by entry. Tags and fused reporters are not part of them.
UniProt P19532: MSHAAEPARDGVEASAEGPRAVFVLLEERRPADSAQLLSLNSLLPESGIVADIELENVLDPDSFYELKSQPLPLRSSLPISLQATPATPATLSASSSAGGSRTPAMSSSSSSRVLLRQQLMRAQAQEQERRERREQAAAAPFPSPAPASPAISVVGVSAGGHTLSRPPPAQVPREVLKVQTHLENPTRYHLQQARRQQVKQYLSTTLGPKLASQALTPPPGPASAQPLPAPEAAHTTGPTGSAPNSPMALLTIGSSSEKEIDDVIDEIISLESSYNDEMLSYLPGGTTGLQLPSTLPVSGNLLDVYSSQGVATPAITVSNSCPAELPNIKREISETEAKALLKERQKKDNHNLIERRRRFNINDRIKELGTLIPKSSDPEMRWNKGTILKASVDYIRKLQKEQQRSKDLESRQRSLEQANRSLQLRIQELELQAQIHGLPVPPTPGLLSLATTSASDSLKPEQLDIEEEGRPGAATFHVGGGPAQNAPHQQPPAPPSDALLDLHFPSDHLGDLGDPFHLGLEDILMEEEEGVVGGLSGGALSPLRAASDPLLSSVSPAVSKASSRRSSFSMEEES
UniProt Q13263: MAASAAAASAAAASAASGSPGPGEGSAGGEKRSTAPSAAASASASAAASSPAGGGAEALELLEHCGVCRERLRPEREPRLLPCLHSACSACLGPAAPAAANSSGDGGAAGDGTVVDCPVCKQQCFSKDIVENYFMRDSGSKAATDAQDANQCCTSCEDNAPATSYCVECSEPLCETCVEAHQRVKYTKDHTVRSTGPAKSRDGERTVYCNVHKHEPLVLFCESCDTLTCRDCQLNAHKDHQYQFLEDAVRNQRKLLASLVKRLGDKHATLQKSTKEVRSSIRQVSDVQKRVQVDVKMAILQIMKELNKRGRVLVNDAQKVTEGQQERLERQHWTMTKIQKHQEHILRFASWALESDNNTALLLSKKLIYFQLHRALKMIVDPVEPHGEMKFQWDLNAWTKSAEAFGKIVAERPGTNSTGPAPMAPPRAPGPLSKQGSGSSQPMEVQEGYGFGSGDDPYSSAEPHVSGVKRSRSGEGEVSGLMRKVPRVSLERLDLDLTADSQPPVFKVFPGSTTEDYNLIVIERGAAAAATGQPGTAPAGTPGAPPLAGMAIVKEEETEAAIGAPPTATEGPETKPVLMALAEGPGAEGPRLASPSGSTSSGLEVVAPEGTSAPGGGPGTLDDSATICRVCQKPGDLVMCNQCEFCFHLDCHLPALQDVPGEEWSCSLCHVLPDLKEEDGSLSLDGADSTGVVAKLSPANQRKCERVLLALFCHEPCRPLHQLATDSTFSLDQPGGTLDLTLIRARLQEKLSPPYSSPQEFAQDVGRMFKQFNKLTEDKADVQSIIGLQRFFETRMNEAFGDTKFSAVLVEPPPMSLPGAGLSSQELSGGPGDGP

Biological target: TFE3 (UniProt P19532)
Test: co-IP; coimmunoprecipitation and Western blot (Fig. S3D, E); cells lysed in IPE150 buffer (20 mM Hepes pH 7.5, 150 mM NaCl, 0.5% NP40, 10% glycerol) with sonication; cells and bait not told in the text shown

Substance: TRIM28 (from UniProt Q13263 1-835)
- binding: binds
